# PubChem BioAssay AID1159578 | Peter MacCallum Cancer Centre | 2015
# Screen: 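Genome-wide hunt for genes controlling movement of lymphatic endothelial cells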 (primary screen)
# System: human lymphatic endothelial cells
# Knock-down reagent: siRNA pool against human genes, 40 nM
# Timing: 48 h after transfection
# Detection: 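High-content imaging of dye-stained cells in a scratch assay measures filled wound area and nuclei per well; duplicate means given as ratio to mock and robust z-score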
# Scale: migration robust z-score: higher = faster migration into the scratch; migration relative to mock: higher = more scratch area covered than mock; nuclei per well: higher = more cells in the well
# Active means: 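Migration changed when robust z exceeds 2 or falls below -2 and mean nuclei number is at least 3300; otherwise not called changed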
# Calls: active = migration changed; inactive = no migration change, or too few cells
# In all, the deposit lists about 18,000 reagents; below is a random part of them. About 1,030 of all reagents (5.7%) were called active. 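Inactive calls also include pools with fewer than 3300 nuclei, whose migration was not assessed.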 The raw values are shown without normalisation. A number with no mark means an inactive call. Reagent sequences are not shown.
gene,migration robust z-score,migration class with cell-count check,migration relative to mock,"nuclei per well, duplicate mean"
C9orf85 (GeneID 138241),-0.37,migration z between -2 and 2; enough cells,0.79,4725
KMT5B (GeneID 51111),-0.56,migration z between -2 and 2; enough cells,0.74,6428
PGD (GeneID 5226),0.44,migration z between -2 and 2; enough cells,0.89,5622
CYP2R1 (GeneID 120227),-2,migration z between -2 and 2; enough cells,0.36,5936
ADAMDEC1 (GeneID 27299),0.65,migration z between -2 and 2; enough cells,0.93,6342
ANP32CP (GeneID 23520),-0.53,migration z between -2 and 2; enough cells,0.75,7290
MAP1LC3A (GeneID 84557),-1.62,migration z between -2 and 2; enough cells,0.46,3680
KRTAP9-2 (GeneID 83899),-1.46,under 3300 nuclei; migration not judged,0.5,2794
FGG (GeneID 2266),1.38,migration z between -2 and 2; enough cells,1.07,5980
ZSCAN26 (GeneID 7741),-0.88,migration z between -2 and 2; enough cells,0.66,5178
HORMAD2 (GeneID 150280),0.46,migration z between -2 and 2; enough cells,1,8316
RFT1 (GeneID 91869),-0.29,migration z between -2 and 2; enough cells,0.81,5584
AFTPH (GeneID 54812),-0.1,migration z between -2 and 2; enough cells,0.86,5947
HUWE1 (GeneID 10075),0.36,migration z between -2 and 2; enough cells,0.87,6948
SLC7A8 (GeneID 23428),0.2,migration z between -2 and 2; enough cells,0.94,7009
SLC52A3 (GeneID 113278),1.09,migration z between -2 and 2; enough cells,1.17,5636
PLEKHM1 (GeneID 9842),1.56,migration z between -2 and 2; enough cells,1.29,6848
DDX54 (GeneID 79039),0.62,migration z between -2 and 2; enough cells,0.92,5654
GRHPR (GeneID 9380),-0.8,migration z between -2 and 2; enough cells,0.68,6526
NIBAN3 (GeneID 199786),-0.4,migration z between -2 and 2; enough cells,0.78,5622
COL13A1 (GeneID 1305),0.2,migration z between -2 and 2; enough cells,0.94,5470
CLASRP (GeneID 11129),-1.44,migration z between -2 and 2; enough cells,0.51,4828
SPAM1 (GeneID 6677),-0.57,migration z between -2 and 2; enough cells,0.7,3858
DNAJC22 (GeneID 79962),1.13,migration z between -2 and 2; enough cells,1.18,5546
OR2G6 (GeneID 391211),-0.54,migration z between -2 and 2; enough cells,0.74,5344
MVB12A (GeneID 93343),1.36,migration z between -2 and 2; enough cells,1.24,7240
RASSF4 (GeneID 83937),0.82,migration z between -2 and 2; enough cells,1.1,4142
PAQR8 (GeneID 85315),0.06,migration z between -2 and 2; enough cells,0.9,6178
KLHL2 (GeneID 11275),-0.55,migration z between -2 and 2; enough cells,0.74,5096
C6orf120 (GeneID 387263),1.66,migration z between -2 and 2; enough cells,1.31,5897
SUGP1 (GeneID 57794),1.75,migration z between -2 and 2; enough cells,1.34,5096
CMSS1 (GeneID 84319),2.73 (active),migration z above 2; enough cells,1.58,5740
KRTAP13-1 (GeneID 140258),0.02,migration z between -2 and 2; enough cells,0.88,5277
GYG1 (GeneID 2992),3.84 (active),migration z above 2; enough cells,1.54,6521
MAP1LC3B (GeneID 81631),1.15,migration z between -2 and 2; enough cells,1.18,5058
GSTM2 (GeneID 2946),-0.5,migration z between -2 and 2; enough cells,0.71,5326
TPP1 (GeneID 1200),0.8,migration z between -2 and 2; enough cells,0.96,5856
KDM1A (GeneID 23028),0.8,migration z between -2 and 2; enough cells,0.96,6200
NBR1 (GeneID 4077),0.6,migration z between -2 and 2; enough cells,1.04,5538
MED21 (GeneID 9412),-0.91,migration z between -2 and 2; enough cells,0.63,6572
KRT10 (GeneID 3858),2.12 (active),migration z above 2; enough cells,1.44,5920
BAHD1 (GeneID 22893),0.54,migration z between -2 and 2; enough cells,0.91,4802
ABHD14A (GeneID 25864),0.31,migration z between -2 and 2; enough cells,0.86,7166
ASB9 (GeneID 140462),-0.34,migration z between -2 and 2; enough cells,0.74,5644
PAPSS2 (GeneID 9060),0.52,migration z between -2 and 2; enough cells,0.9,5346
SDR16C5 (GeneID 195814),0.42,migration z between -2 and 2; enough cells,0.89,5960
PPEF1 (GeneID 5475),-0.73,migration z between -2 and 2; enough cells,0.66,4683
ASXL1 (GeneID 171023),-0.93,migration z between -2 and 2; enough cells,0.64,5628
ABCC3 (GeneID 8714),-3.07 (active),migration z below -2; enough cells,0.22,4820
MAST1 (GeneID 22983),1.09,migration z between -2 and 2; enough cells,1.02,4730
EIF6 (GeneID 3692),0.08,migration z between -2 and 2; enough cells,0.82,5067
MAGED4B (GeneID 81557),0.34,migration z between -2 and 2; enough cells,0.98,6356
ATP6V0B (GeneID 533),0.38,migration z between -2 and 2; enough cells,0.99,5874
DDX19B (GeneID 11269),0.75,migration z between -2 and 2; enough cells,0.95,5333
CFAP418 (GeneID 157657),0.52,migration z between -2 and 2; enough cells,1.02,3775
CTCFL (GeneID 140690),-0.02,migration z between -2 and 2; enough cells,0.88,4086
LRCH2 (GeneID 57631),-0.21,migration z between -2 and 2; enough cells,0.84,5526
PDIK1L (GeneID 149420),0.02,migration z between -2 and 2; enough cells,0.81,5124
RASAL3 (GeneID 64926),0.97,migration z between -2 and 2; enough cells,1.13,6284
TMEM41B (GeneID 440026),1.06,migration z between -2 and 2; enough cells,1.16,5138
GPATCH4 (GeneID 54865),3.5 (active),migration z above 2; enough cells,1.8,5903
PCDHGB3 (GeneID 56102),0.58,migration z between -2 and 2; enough cells,1.04,4256
CAMK2N2 (GeneID 94032),0.05,migration z between -2 and 2; enough cells,0.9,4993
MAGEB10 (GeneID 139422),-0.14,migration z between -2 and 2; enough cells,0.86,5474
ALKBH7 (GeneID 84266),-0.36,migration z between -2 and 2; enough cells,0.78,7653
FZD1 (GeneID 8321),0.34,migration z between -2 and 2; enough cells,0.87,5138
CENPA (GeneID 1058),-0.24,migration z between -2 and 2; enough cells,0.82,5719
SPINK1 (GeneID 6690),0.05,migration z between -2 and 2; enough cells,0.82,4506
TMPRSS11F (GeneID 389208),0.18,migration z between -2 and 2; enough cells,0.84,5382
CDS2 (GeneID 8760),-0.94,migration z between -2 and 2; enough cells,0.62,6341
PPIL4 (GeneID 85313),0.88,migration z between -2 and 2; enough cells,0.98,4977
EXOG (GeneID 9941),0.75,migration z between -2 and 2; enough cells,0.95,3672
ASB13 (GeneID 79754),-1.82,migration z between -2 and 2; enough cells,0.45,5817
